PubChem BioAssay AID1259327 – Drosophila RNAi Screening Center – 2017
Assay: 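Baseline ATP after transmembrane-protein gene knock-down with water vehicle only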. System: Drosophila S2R+ cells. Reagent: long dsRNA against Drosophila genes. Duration: 5 days (water added on day 4, read one day later). Conditions: water added as vehicle, no metal, one day before read-out. Detection: 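Luciferase ATP signal per well, normalised to plate mean, duplicate average converted to z-score across plates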. Direction: ATP z-score: higher = more total ATP than typical wells; ATP luminescence: higher = more total ATP. Rule for the call: 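a hit is any knock-down whose absolute ATP z-score is greater than 1.5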. Meaning of the calls: active = hit: ATP up or down; inactive = no clear ATP change.
Here is a random part of about 3,100 reagents tested. 378 of them (12%) count as active. 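Hits include both directions; z-score sign shows ATP rise or fall; raw luminescence values are not plate-normalised.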 Unmarked entries are inactive. The numbers tell different reagents against one gene apart. No sequences are given here. The record does not give: the amount of reagent.

SppL (Signal peptide peptidase-like): ATP z-score, duplicate mean = 0.291; ATP luminescence, replicate 1 (RLU) = 3.05e5; ATP luminescence, replicate 2 (RLU) = 8.12e5
Mrp5 (Multidrug resistance protein 5) #1: ATP z-score, duplicate mean = -0.246; ATP luminescence, replicate 1 (RLU) = 2.82e5; ATP luminescence, replicate 2 (RLU) = 7.51e5
Mrp5 (Multidrug resistance protein 5) #2: ATP z-score, duplicate mean = 0.768; ATP luminescence, replicate 1 (RLU) = 7.87e5; ATP luminescence, replicate 2 (RLU) = 8.67e5
Mrp5 (Multidrug resistance protein 5) #3: ATP z-score, duplicate mean = -1.64 (active); ATP luminescence, replicate 1 (RLU) = 6.76e5; ATP luminescence, replicate 2 (RLU) = 5.80e5
ABCB7 (ATP binding cassette subfamily B member 7): ATP z-score, duplicate mean = 0.391; ATP luminescence, replicate 1 (RLU) = 6.26e5; ATP luminescence, replicate 2 (RLU) = 6.84e5
TrissinR (Trissin receptor) #1: ATP z-score, duplicate mean = -0.35; ATP luminescence, replicate 1 (RLU) = 9.41e5; ATP luminescence, replicate 2 (RLU) = 6.35e5
TrissinR (Trissin receptor) #2: ATP z-score, duplicate mean = -0.225; ATP luminescence, replicate 1 (RLU) = 8.92e5; ATP luminescence, replicate 2 (RLU) = 7.52e5
NijA (Ninjurin A): ATP z-score, duplicate mean = -0.102; ATP luminescence, replicate 1 (RLU) = 9.14e5; ATP luminescence, replicate 2 (RLU) = 8.53e5
CG9458: ATP z-score, duplicate mean = 2.06 (active); ATP luminescence, replicate 1 (RLU) = 3.96e5; ATP luminescence, replicate 2 (RLU) = 9.73e5
CG13795 #1: ATP z-score, duplicate mean = -0.532; ATP luminescence, replicate 1 (RLU) = 6.80e5; ATP luminescence, replicate 2 (RLU) = 6.60e5
CG13795 #2: ATP z-score, duplicate mean = -1.98 (active); ATP luminescence, replicate 1 (RLU) = 3.71e5; ATP luminescence, replicate 2 (RLU) = 4.64e5
CG33303 #1: ATP z-score, duplicate mean = 1.2; ATP luminescence, replicate 1 (RLU) = 8.20e5; ATP luminescence, replicate 2 (RLU) = 8.86e5
CG33303 #2: ATP z-score, duplicate mean = -0.656; ATP luminescence, replicate 1 (RLU) = 4.44e5; ATP luminescence, replicate 2 (RLU) = 4.21e5
Tsp42Ef (Tetraspanin 42Ef): ATP z-score, duplicate mean = 0.711; ATP luminescence, replicate 1 (RLU) = 6.99e5; ATP luminescence, replicate 2 (RLU) = 6.69e5
Gr36a (Gustatory receptor 36a) #1: ATP z-score, duplicate mean = 0.546; ATP luminescence, replicate 1 (RLU) = 6.52e5; ATP luminescence, replicate 2 (RLU) = 5.99e5
Gr36a (Gustatory receptor 36a) #2: ATP z-score, duplicate mean = 0.459; ATP luminescence, replicate 1 (RLU) = 9.06e5; ATP luminescence, replicate 2 (RLU) = 9.67e5
ppk13 (pickpocket 13): ATP z-score, duplicate mean = 0.345; ATP luminescence, replicate 1 (RLU) = 7.81e5; ATP luminescence, replicate 2 (RLU) = 7.45e5
VGAT (Vesicular GABA Transporter): ATP z-score, duplicate mean = -1.64 (active); ATP luminescence, replicate 1 (RLU) = 4.48e5; ATP luminescence, replicate 2 (RLU) = 4.94e5
CG32301 #1: ATP z-score, duplicate mean = 1.12; ATP luminescence, replicate 1 (RLU) = 7.27e5; ATP luminescence, replicate 2 (RLU) = 7.16e5
CG32301 #2: ATP z-score, duplicate mean = -1.03; ATP luminescence, replicate 1 (RLU) = 4.23e5; ATP luminescence, replicate 2 (RLU) = 3.66e5
Ac13E (Adenylyl cyclase 13E) #1: ATP z-score, duplicate mean = -0.899; ATP luminescence, replicate 1 (RLU) = 6.25e5; ATP luminescence, replicate 2 (RLU) = 8.98e5
Ac13E (Adenylyl cyclase 13E) #2: ATP z-score, duplicate mean = -0.243; ATP luminescence, replicate 1 (RLU) = 1.05e6; ATP luminescence, replicate 2 (RLU) = 1.09e6
trpl (transient receptor potential-like) #1: ATP z-score, duplicate mean = -1.17; ATP luminescence, replicate 1 (RLU) = 4.93e5; ATP luminescence, replicate 2 (RLU) = 5.34e5
trpl (transient receptor potential-like) #2: ATP z-score, duplicate mean = -1.25; ATP luminescence, replicate 1 (RLU) = 5.26e5; ATP luminescence, replicate 2 (RLU) = 4.21e5
